Test [1] concerns the target T1, SUMO2-tagged Bacillus cereus VD045 GajA (chain of the SUMO2-GajAB complex) (Bacillus cereus VD045) (UniProt J8H9C1).
T1 sequence: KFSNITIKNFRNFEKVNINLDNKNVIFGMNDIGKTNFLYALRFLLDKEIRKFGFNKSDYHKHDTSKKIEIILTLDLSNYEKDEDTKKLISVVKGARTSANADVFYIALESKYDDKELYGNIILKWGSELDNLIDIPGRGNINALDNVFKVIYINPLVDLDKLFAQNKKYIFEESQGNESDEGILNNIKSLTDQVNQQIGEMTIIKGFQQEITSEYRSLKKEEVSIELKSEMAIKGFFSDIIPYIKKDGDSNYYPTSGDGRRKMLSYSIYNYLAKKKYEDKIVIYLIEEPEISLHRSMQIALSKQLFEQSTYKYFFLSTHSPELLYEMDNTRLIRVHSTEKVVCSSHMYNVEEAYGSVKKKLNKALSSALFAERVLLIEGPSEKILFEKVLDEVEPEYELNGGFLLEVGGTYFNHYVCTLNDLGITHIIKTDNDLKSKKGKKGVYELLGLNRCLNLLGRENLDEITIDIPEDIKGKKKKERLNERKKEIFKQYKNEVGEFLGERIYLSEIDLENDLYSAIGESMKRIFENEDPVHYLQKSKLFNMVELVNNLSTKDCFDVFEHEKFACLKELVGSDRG
Nature of the test: cryo-EM structure.

The target of test [2] is T2, Bacillus cereus VD045 GajA (Gabija protein A), co-expressed with GajB, tag removed (Bacillus cereus VD045) (UniProt J8H9C1).
T2 sequence: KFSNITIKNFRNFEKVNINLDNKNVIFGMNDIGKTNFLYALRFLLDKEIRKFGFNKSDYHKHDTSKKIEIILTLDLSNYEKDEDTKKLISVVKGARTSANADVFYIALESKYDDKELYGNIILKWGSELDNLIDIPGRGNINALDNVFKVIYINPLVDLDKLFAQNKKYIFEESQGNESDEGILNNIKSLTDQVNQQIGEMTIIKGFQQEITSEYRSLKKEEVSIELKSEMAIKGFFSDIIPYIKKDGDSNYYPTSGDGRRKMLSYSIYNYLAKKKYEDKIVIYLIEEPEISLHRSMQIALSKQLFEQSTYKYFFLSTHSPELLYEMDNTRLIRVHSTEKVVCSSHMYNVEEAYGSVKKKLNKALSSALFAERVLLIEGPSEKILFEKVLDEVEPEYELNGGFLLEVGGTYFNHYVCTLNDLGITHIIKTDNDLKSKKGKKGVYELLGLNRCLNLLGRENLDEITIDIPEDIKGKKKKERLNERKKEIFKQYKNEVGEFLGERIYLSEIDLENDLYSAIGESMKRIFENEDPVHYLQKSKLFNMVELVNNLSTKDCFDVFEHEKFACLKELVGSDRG
Nature of the test: SEC. On the technique in general: SEC sorts molecules by how far they enter the pores of the column.

These are yes or no findings as the source states them, for the method shown. Some entries that bind do so weakly or less than the wild type. Where a sequence is shown, tags or fusion partners need not be part of it.

This passage reports binding results from publication doi:10.1101/2023.05.01.538945.

B1: Bacillus cereus VD045 GajB (Gabija protein B), untagged, co-expressed with GajA (enzyme, UniProt J8HQ06 2-494)
chain: SREQIIKDGGNILVTAGAGSGKTTILVSKIEADLKENKTHYSIAAVTFTNKAAKEIEGRLGYSSRGNFIGTNDGFVESEIIRPFIKDAFGNDYPDNFTAEYFDNQFASYDKGLQVLKYQNILGTYSNPKKNFKFQLALDILKKSLVARQYIFSKYFKIFIDEYQDSDKDMHNLFMYLKDQLKIKLFIVGDPKQSIYIWRGAEPENFNGLIENSTDFNKYHLTSNFRCCQDIQNYSNLFNEETRSLIKEKNEVQNVISIADDMPISDILLKLTEEKQVLNIEAELVILVRRRNQAIEIMKELNEEGFNFIFIPQTPLDRATPNATLLKEVIKYVKNDRYSIYDLAAEIVGNLSSREIKEIQKIINELLVPNINQVLINQVLINLFAKLEITLDTREITAFTEVMMTNEFDIAFDTNEYLHKIFTVHSAKGLEFNQVIITASDYNVHYNRDTNEHYVATTRAKDKLIVIMDNKKYSDYIETLMKELKIKNIIKSI
On to B1, for which the binding result in test [1] and in test [2] was “binds” throughout.
